# Measured values taken from PMC7819943, “Rice protein-binding microarrays: a tool to detect cis-acting elements near promoter regions in rice”.
# Sequences of proteins named here, by UniProt entry; tags and fusion partners are left off.
# UniProt Q0JBA9, entry or part of it: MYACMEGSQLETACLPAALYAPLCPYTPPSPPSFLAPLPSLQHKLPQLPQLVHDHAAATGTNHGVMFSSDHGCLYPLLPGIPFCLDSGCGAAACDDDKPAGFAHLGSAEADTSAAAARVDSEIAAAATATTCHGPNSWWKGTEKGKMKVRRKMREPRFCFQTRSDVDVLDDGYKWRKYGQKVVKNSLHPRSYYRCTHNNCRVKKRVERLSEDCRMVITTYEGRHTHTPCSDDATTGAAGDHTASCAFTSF
# Some of the results follow.
# Target: OsWRKY34 (Oryza sativa, UniProt Q0JBA9 1-250)
# Experiment: protein-binding microarray (RPBM); PBS, 2% BSA, 51.3 ng/ul salmon testes DNA, 50 uM zinc acetate, 200 nM TF, 25 C, 1 h; high values mean tight binding
# Settings: protein: recombinant; tags: N-terminal polyhistidine and DsRed monomer fusion (pET32a); label: CyDye5-dUTP incorporated in the synthesized complementary strand; 3' TTTTT single-stranded linker to array surface; dsDNA, one strand shown
# In short: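 In PBS with 2% BSA, salmon testes DNA and 50 µM zinc acetate, 200 nM protein was incubated on a custom Agilent array at 25 °C for 1 h and then washed off. The array had been made double-stranded by primer extension with Cy5-dUTP and blocked with 2% BSA. The proteins were transcription factors fused N-terminally to polyhistidine and DsRed, expressed in E. coli BL21-CodonPlus and purified on Ni–NTA. The binding signal is per-feature fluorescence intensity (arbitrary units) from an Axon 4000B scanner.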
row,Sequence,binding signal
1,GCTATAGACACCATTCTAGTCATTGGGTTGGGAATGATCTCGGAGTCACCTAGTGCAG,13800 fluorescence intensity (a.u.)
2,CCGCAGCACCTACTCCGTTTGCGCTTGTGACGCGCGCGTTCGGAGTCACCTAGTGCAG,10000 fluorescence intensity (a.u.)
3,TTTATTTCATTTATTTGTGACTTACTTTATTATTCAAAGTCGGAGTCACCTAGTGCAG,8360 fluorescence intensity (a.u.)
4,ACCCCACCTCCTCCCGTGCAAAACCTCCACCACCACCGCCCGGAGTCACCTAGTGCAG,8040 fluorescence intensity (a.u.)
5,ACCCAATAAGTCCAGCTAACTTGCTTACATGGCCACTACACGGAGTCACCTAGTGCAG,8040 fluorescence intensity (a.u.)
6,TTGCCCATGTCTGCTTCTAGCTTCTTCTCGGCTGATTGCTCGGAGTCACCTAGTGCAG,8670 fluorescence intensity (a.u.)
7,ATTCCGCCTGAACCCCACACCCGGATTCCGCCGTCAGCCACGGAGTCACCTAGTGCAG,8730 fluorescence intensity (a.u.)
8,AATATGTCACGCCAATCCGAATCTGTTACTTGCTCGAACCCGGAGTCACCTAGTGCAG,9500 fluorescence intensity (a.u.)
9,CCGGATCTAGCAAGGCCCTCCGACTTTGGCGGTGGAGGGGCGGAGTCACCTAGTGCAG,8450 fluorescence intensity (a.u.)
10,CCGCACTCCCGCCACCACCCATACGAGACGCCGCGCGCGTCGGAGTCACCTAGTGCAG,8760 fluorescence intensity (a.u.)
11,GTCGTCTGTACAGTGCTGCCCTGTATTTGCAGCCTTTCTCCGGAGTCACCTAGTGCAG,9020 fluorescence intensity (a.u.)
12,GGGGCGGGAGCGGGAGGGCGGCGTCGGCGAGTAGGAGGTGCGGAGTCACCTAGTGCAG,9750 fluorescence intensity (a.u.)
13,TCAGCGCCCCACACCTGTATATATATATATATATCGTCTTCGGAGTCACCTAGTGCAG,10100 fluorescence intensity (a.u.)
14,GAGGCTAGCTGACGTTTTTTTTTTGGTTGGCTTCTCGATCCGGAGTCACCTAGTGCAG,8730 fluorescence intensity (a.u.)
15,CTCTCGGCCTCTCTCCATCTGCGTGAGCTGCTCTCGCTTCCGGAGTCACCTAGTGCAG,8580 fluorescence intensity (a.u.)
16,CTCGCCGCTCAAGGCCACTGACTTCGGTCTTTCCGTTTTCCGGAGTCACCTAGTGCAG,10700 fluorescence intensity (a.u.)
17,TTCTTCCTCTTGCGCCTCATCAGCCTTCTTCACCTAGCACCGGAGTCACCTAGTGCAG,8040 fluorescence intensity (a.u.)
18,TCCGCTAAGTCAATCCTACCGCCTCGCCTCATCTCCGTCACGGAGTCACCTAGTGCAG,11300 fluorescence intensity (a.u.)
19,TGCACACATTCTCTCACAATGCATGTATCGATTAAAACACCGGAGTCACCTAGTGCAG,9800 fluorescence intensity (a.u.)
20,CCTCTATTTTTTCCGTGTACTTATATTTTTTTTGGCCGTACGGAGTCACCTAGTGCAG,13800 fluorescence intensity (a.u.)
21,CAGCAACCGTTCGTCGCGCCTCTATTTACGTGTTCGTTCGCGGAGTCACCTAGTGCAG,8310 fluorescence intensity (a.u.)

row,Sequence,binding signal
1,CCAACACGTACGCCAGCCTCATCGGCCTCACCTGGTCGCTCGGAGTCACCTAGTGCAG,9090 fluorescence intensity (a.u.)
2,TCCCTCGTCATCGTCAACCTCCTCCTCGTCCGCTTCCTGTCGGAGTCACCTAGTGCAG,10100 fluorescence intensity (a.u.)
3,CAACACCCCTCGACACGTCGTTCATGCTCATTCGCGTACCCGGAGTCACCTAGTGCAG,8890 ± 395 fluorescence intensity (a.u.)
4,GCCCTCGCTTTCTTCCCGCACCAACCCCGCCTACCGCTCCCGGAGTCACCTAGTGCAG,8090 fluorescence intensity (a.u.)
5,AACGACCCTTTGCTAGGTTTTGGATTTGTTTTGCTTTCTCCGGAGTCACCTAGTGCAG,11200 fluorescence intensity (a.u.)
6,GCAAGACCGTGTCAGGTCTTCCAATAACTCCCCGCGATTTCGGAGTCACCTAGTGCAG,8200 fluorescence intensity (a.u.)
7,AACTCTTTCCTTCTCTCTCATCCCCATTTCATGCAAATAACGGAGTCACCTAGTGCAG,8480 fluorescence intensity (a.u.)
8,TCCCACATATTTTTTTATTTTGTTTTTATTCTAATGTCACCGGAGTCACCTAGTGCAG,9810 fluorescence intensity (a.u.)
9,TGAGAAGGACCACTTAATTCTGAATATTCTCTTGGACAACCGGAGTCACCTAGTGCAG,8530 fluorescence intensity (a.u.)
10,GCGGCCGGTCCGAGCGAGCGGAGAGGGAGGAGGCGGGGAGCGGAGTCACCTAGTGCAG,8360 fluorescence intensity (a.u.)
11,GTGGTATCATGTATCTAGTGGCGAGTGCGTTTACCATATACGGAGTCACCTAGTGCAG,10200 fluorescence intensity (a.u.)
12,GAGCTCGGCCTATCACCCACAAACTGATTGTCAGACCGAGCGGAGTCACCTAGTGCAG,8260 fluorescence intensity (a.u.)
13,GTGTTCCATGCCTCTAACCTAGCTACTTTTGCTGCCACTCCGGAGTCACCTAGTGCAG,12100 fluorescence intensity (a.u.)
14,CGCTGGTCAAACCTATGGGTTATGTACTAATTTTGCCTATCGGAGTCACCTAGTGCAG,8640 fluorescence intensity (a.u.)
15,TGGCTGGTTACCCATCCTAGGCTCCCAGCGGTTTCTTGCACGGAGTCACCTAGTGCAG,8090 fluorescence intensity (a.u.)
16,TGCGCATCGTCCGATCCCAACCGTCCATCCCAGATCGGACCGGAGTCACCTAGTGCAG,8180 fluorescence intensity (a.u.)
17,GTGGCGAGGGAGGGCTTTTGGCTGAGAGTCGACGGCGGGGCGGAGTCACCTAGTGCAG,10500 fluorescence intensity (a.u.)
18,TCTCTCCATCCCCTCACTCTTGGACACTTTGAGCTAAGCTCGGAGTCACCTAGTGCAG,9530 fluorescence intensity (a.u.)
19,TTCTTCTTCGTCTTCGTCTTCGTCTTCGTCTTCTTCTTCACGGAGTCACCTAGTGCAG,13200 fluorescence intensity (a.u.)
20,CTCGCCGTCTTCCCCACCCTCACGCTCGCCTTCATCGCCGCGGAGTCACCTAGTGCAG,8610 fluorescence intensity (a.u.)
21,GCAGCCAAACCCTCCACTCCTCGCTTCTCCGGTGGTTCTCCGGAGTCACCTAGTGCAG,8660 fluorescence intensity (a.u.)

row,Sequence,binding signal
1,CGGCTTTATCTCCGTCTCCAATCTCCTTCTACGACCAGACCGGAGTCACCTAGTGCAG,11500 fluorescence intensity (a.u.)
2,ACCCTAGCCGCCACTCCGCCATTTCGGTAAGGTTTGCTGCCGGAGTCACCTAGTGCAG,10700 fluorescence intensity (a.u.)
3,CTACACTGTCTTGCTCGCTCATTGTCTCTCTCTGCATTTGCGGAGTCACCTAGTGCAG,8580 fluorescence intensity (a.u.)
4,TGGCTGGTTGGGAGGGGACAGCACATGATGCTGTAGTTTTCGGAGTCACCTAGTGCAG,14600 fluorescence intensity (a.u.)
5,TCTTCTCTCTTATCATTTATCTCATTAAAATATGTTTATACGGAGTCACCTAGTGCAG,8650 fluorescence intensity (a.u.)
6,CTATTTCCTTCTAGCTTCGCCCTGGGCTCGAGTATGCTTTCGGAGTCACCTAGTGCAG,8530 fluorescence intensity (a.u.)
7,ACTGTGGTTATCTTGCTATCTCTCCTACTCGCTCTGTCAACGGAGTCACCTAGTGCAG,16500 fluorescence intensity (a.u.)
8,GGTGCCAATATTACTGCTTCATCTGAATTTGTTCTTGATTCGGAGTCACCTAGTGCAG,9220 fluorescence intensity (a.u.)
9,TGCCATGCCATCCGACCGCCCCTCCCGCCGCGCCTAAAACCGGAGTCACCTAGTGCAG,8450 fluorescence intensity (a.u.)
10,CAACTCCGCTTCTTTTATAATAGCCGTCCATACCCGCCCACGGAGTCACCTAGTGCAG,9100 fluorescence intensity (a.u.)
11,CGCCGCGCGTACGTTTCGTCTTCGGCCTCGTCTCGGCGTGCGGAGTCACCTAGTGCAG,8870 fluorescence intensity (a.u.)
12,CTTCCACACCGCAATCTCGCAACACATCAGCACACACCGCCGGAGTCACCTAGTGCAG,10300 fluorescence intensity (a.u.)
13,TTTGATCTCCTAGCTAGCTGTTGCACGTACGTCCCCTATACGGAGTCACCTAGTGCAG,9120 fluorescence intensity (a.u.)
14,GGTGATTCATATGCTGGCCCTATTCGAAGGCACTTGCTGCCGGAGTCACCTAGTGCAG,8600 fluorescence intensity (a.u.)
15,CAGAACTCATAAACATGTACCTACTGTGTCCTTTTCGTTGCGGAGTCACCTAGTGCAG,9960 fluorescence intensity (a.u.)
16,CTATAACCCGCTGCTTTTCTCTCTTATCTTTTACCTCATTCGGAGTCACCTAGTGCAG,9380 fluorescence intensity (a.u.)
17,CTTCAACTTTTGTCCATTTTCAGACGGTATTACTCTTGCACGGAGTCACCTAGTGCAG,9970 fluorescence intensity (a.u.)
18,TCTTCCACTCCTCCTCTCTCTCTTGTCTCTCTCGCTCTTCCGGAGTCACCTAGTGCAG,10400 fluorescence intensity (a.u.)
19,CTACTTCCAAGTTCCTACCTATCAATTTCTCTCCTCCTCTCGGAGTCACCTAGTGCAG,8510 fluorescence intensity (a.u.)
20,CCCTCTACGTCGTTCTCGCGCCGCGACCGTCTTGGAGGCCCGGAGTCACCTAGTGCAG,9630 fluorescence intensity (a.u.)
21,CTATCTTGTTTTTATTTCCACGTCCGCCACTGATTGACTACGGAGTCACCTAGTGCAG,12000 fluorescence intensity (a.u.)

row,Sequence,binding signal
1,GGACGGGGAGGTGGGGCGCGGCGGCGATGATACTGGTGGCCGGAGTCACCTAGTGCAG,10300 fluorescence intensity (a.u.)
2,GGATGTGTTTGGTTGCATGCCTCAGAACGTATCAGATTCGCGGAGTCACCTAGTGCAG,8460 fluorescence intensity (a.u.)
3,TGTACAGTAGTCATGTTTTGGGATTCTCTGTTTTTTTTTGCGGAGTCACCTAGTGCAG,8770 fluorescence intensity (a.u.)
4,CCATCCTGTGAGCCTCATAACTCTCGTCCTGTCTTTGCTACGGAGTCACCTAGTGCAG,12100 fluorescence intensity (a.u.)
5,GCGGGTGGGTCTAGAGATTTTTTTTATTTGTTAATTGGATCGGAGTCACCTAGTGCAG,10400 fluorescence intensity (a.u.)
6,TTCTAAATCGTAACCATTGTGTGTGTGTGTGGACATTTTCCGGAGTCACCTAGTGCAG,10800 fluorescence intensity (a.u.)
7,GTTTCCTACTGTCCATTCTCTTGTACCTGTGATCCACATTCGGAGTCACCTAGTGCAG,8980 fluorescence intensity (a.u.)
8,CCGTCGCTCGCTCCGGCCACTGTCCGCCCCGCTCCAATGCCGGAGTCACCTAGTGCAG,8780 fluorescence intensity (a.u.)
9,TTAATCTGTTACTACCATACACACCTATGCACTAAAATCACGGAGTCACCTAGTGCAG,8250 fluorescence intensity (a.u.)
10,GCTTTTTTGGTTCCGGATCGCATGTAACTTTTTTTTTATTCGGAGTCACCTAGTGCAG,11700 fluorescence intensity (a.u.)
11,AACCAGTCGCCGCTCGCCACGTGGCACCCTCCACCTCCCTCGGAGTCACCTAGTGCAG,8250 fluorescence intensity (a.u.)
12,CTGTTTTGTTCTTTCTTTTTTTTTCTTTTCTCCATATAAGCGGAGTCACCTAGTGCAG,12300 fluorescence intensity (a.u.)
13,AACTATTTTTTTATGGGTTTGTTGTGTAGATCATGTAGCACGGAGTCACCTAGTGCAG,11100 fluorescence intensity (a.u.)
14,CCTTAGTCCTAGCTGTCGCCCTCCGTCTCATTCAGTCCTCCGGAGTCACCTAGTGCAG,9220 fluorescence intensity (a.u.)
15,GGTAGCGCCTTGCCATTCACTGCGCAGAGCTTGCAAGCTTCGGAGTCACCTAGTGCAG,10100 fluorescence intensity (a.u.)
16,GTCGCTTTGGTTCAGATATTTCATTGGATTTTGCCTTGCCCGGAGTCACCTAGTGCAG,8750 fluorescence intensity (a.u.)
17,TCACCATGCACCATGGATCCCAATCTTGCCTTTTTCTTCTCGGAGTCACCTAGTGCAG,8710 fluorescence intensity (a.u.)
18,GGCGTTTGCAACGTTGTCATGATTTTTTTTTTTTTTGGAACGGAGTCACCTAGTGCAG,8980 fluorescence intensity (a.u.)
19,GTAGTATTGTGTTTTGCAAGGAAGGAACAAGCCTTTAATTCGGAGTCACCTAGTGCAG,8380 fluorescence intensity (a.u.)
20,ACCCTTCGTCACCCCTAACCCTAGGCTGAGTCATTCTCTTCGGAGTCACCTAGTGCAG,8460 fluorescence intensity (a.u.)
21,ATCTAGCCTATCGCTCTTGTGTTCTCGGTGTGTACTTGGTCGGAGTCACCTAGTGCAG,16600 fluorescence intensity (a.u.)
